Publication PMC5880400, “FIN219/JAR1 and cryptochrome1 antagonize each other to modulate photomorphogenesis under blue light in Arabidopsis” (PLoS Genetics, 2018)
No constants are given. Whether binding was seen depends on the method and setting. Binding seen in cells or lysates may run through a third protein. Some results given as binding are weak or reduced against the parent protein; the word gives no strength. For part of these data: Tags and fused reporters may be left off the sequences shown.

Protein sequences, listed by entry. Tags and fused reporters are not part of them.
UniProt Q43125: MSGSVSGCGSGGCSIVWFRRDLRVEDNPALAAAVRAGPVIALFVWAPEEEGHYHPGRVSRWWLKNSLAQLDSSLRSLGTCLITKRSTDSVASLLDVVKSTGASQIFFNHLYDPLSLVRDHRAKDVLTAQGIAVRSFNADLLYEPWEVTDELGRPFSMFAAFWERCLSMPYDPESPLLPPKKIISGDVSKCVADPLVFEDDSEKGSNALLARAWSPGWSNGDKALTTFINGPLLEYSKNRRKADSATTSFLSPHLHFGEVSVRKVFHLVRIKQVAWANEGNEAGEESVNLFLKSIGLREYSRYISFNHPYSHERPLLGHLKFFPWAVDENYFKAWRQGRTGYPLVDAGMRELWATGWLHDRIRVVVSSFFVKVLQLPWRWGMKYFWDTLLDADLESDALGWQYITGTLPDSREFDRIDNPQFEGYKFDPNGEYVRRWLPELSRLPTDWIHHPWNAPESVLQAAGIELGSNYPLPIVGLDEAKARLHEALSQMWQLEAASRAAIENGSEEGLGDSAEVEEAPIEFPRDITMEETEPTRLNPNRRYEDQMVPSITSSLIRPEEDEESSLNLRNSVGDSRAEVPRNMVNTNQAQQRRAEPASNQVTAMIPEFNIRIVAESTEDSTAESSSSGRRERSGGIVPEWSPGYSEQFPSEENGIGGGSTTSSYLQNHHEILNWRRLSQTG

Assays:
[1] = target: T1, FIN219/JAR1, endogenous in Arabidopsis seedlings (Arabidopsis thaliana (endogenous in seedlings)) (UniProt Q9SKE2); experiment: co-IP; 2 mg total protein of GUS-CCT1 transgenic or wild-type Col-0 seedlings grown in the dark or blue light with or without MeJA; precipitated with FIN219 monoclonal antibodies, 4°C 4 h; probed with GUS, COP1 or CRY1 polyclonal antibodies
T1 sequence: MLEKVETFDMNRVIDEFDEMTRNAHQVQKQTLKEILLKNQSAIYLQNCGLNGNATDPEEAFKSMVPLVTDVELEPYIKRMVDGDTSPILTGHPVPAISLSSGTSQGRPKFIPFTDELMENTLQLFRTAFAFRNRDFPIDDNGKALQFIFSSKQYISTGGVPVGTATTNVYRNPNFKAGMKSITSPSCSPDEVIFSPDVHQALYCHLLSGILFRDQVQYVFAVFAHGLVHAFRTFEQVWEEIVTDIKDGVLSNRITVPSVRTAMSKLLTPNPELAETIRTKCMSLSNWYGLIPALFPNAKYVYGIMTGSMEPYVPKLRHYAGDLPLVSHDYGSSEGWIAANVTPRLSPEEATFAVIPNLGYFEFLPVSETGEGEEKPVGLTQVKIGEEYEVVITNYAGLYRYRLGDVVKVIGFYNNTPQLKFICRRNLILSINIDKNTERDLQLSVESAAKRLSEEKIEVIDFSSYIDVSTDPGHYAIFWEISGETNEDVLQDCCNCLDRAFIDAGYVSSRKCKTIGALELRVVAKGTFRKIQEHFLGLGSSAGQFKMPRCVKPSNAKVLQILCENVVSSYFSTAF

[2] = target: T2, YC-FIN219 (full-length FIN219 in 35p-YFP-C84/pRTL2) (Arabidopsis thaliana) (UniProt Q9SKE2); experiment: split reporter; BiFC (YFP-N155 / YFP-C84) in Arabidopsis Col-0 mesophyll protoplasts in the dark, without or with 50 uM MeJA
T2 sequence: T1 sequence

[3] = target: T2, YC-FIN219 (full-length FIN219 in 35p-YFP-C84/pRTL2) (Arabidopsis thaliana); experiment: split reporter; BiFC (YFP-N155 / YFP-C84) in Arabidopsis Col-0 mesophyll protoplasts under blue light (2.2 umol m^-2 s^-1), without or with 50 uM MeJA

Substance | binding [1] | binding [2] | binding [3]
CRY1 (cryptochrome1), endogenous in wild-type Col-0 seedlings (from UniProt Q43125 1-681) | binds | – | –
YN-CRY1 (full-length CRY1 in 35p-YFP-N155/pRTL2) (from UniProt Q43125 1-681) | – | no binding (condition: in the dark) | binds
